The source of these data is PubChem BioAssay AID2685 (National Center for Advancing Translational Sciences (NCATS), 2010).

The experiment is described as follows: qHTS Assay for Lipid Storage Modulators in Drosophila S3 Cells.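 For cell number change: cells counted by Cell Tracker Red CMTPX staining in the red channel.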 The settings on record: BODIPY lipid droplet fluorescence, 18-24 h; for cell number change: measured here: cell count max response, cells fed with added oleic acid. In short, it runs like this:
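Laser-scanning cytometry quantifies lipid droplet accumulation (500–530 nm total intensity; droplet/cell object ratio) in oleic acid-fed (400 uM added) Drosophila S3 cells treated with a concentration series. 20 uM Triacsin C defined 100% inhibition.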

Setting [1] is: measured here: lipid fluorescence (Fed channel) AC50, cells fed with added oleic acid.
The mark [2] stands for this setting: measured here: cell number channel AC50, cells fed with added oleic acid.

The other results are listed elsewhere or left out. Shown are side measurements of this screen, not its main read-out; they come without a call. Most of these compounds were active or inconclusive in the main read-out, so they are no random draw. Words in brackets tell the shape of the fitted curve; partial curves, single points and poor fits give uncertain potencies.

Regarding `CCCCOC(=O)Nc1ccccc1C(=O)OC`, the cell number change was -7.43%. What is called AC50 is the concentration at which the activity in the assay is half-maximal. Lower therefore signals activity at low concentration. In the case of `O=c1c2ccccc2nc(/C=C/c2ccc([N+](=O)[O-])o2)n1CCCO`, the cell number change was -24%. Moreover, the AC50 under setting [1] was 2.06 µM [falling, full curve]. Regarding `COc1ccccc1NC(=O)CSc1nc2ccccc2c(=O)n1CC1CCCO1` (centres undefined), the cell number change was -19.7%. Besides, the AC50 under setting [1] is 3.55 µM [falling, single point]. Turning to `COC(=O)Cc1c(C)c2ccc(OC(=O)c3ccccc3)cc2oc1=O`, the cell number change amounted to 0.295%. The AC50 under setting [2] was 0.0058 µM [falling, full curve, poor fit]. Further, the AC50 under setting [1] is 5.8 µM [falling, full curve]. Turning to `COc1ccc(C)cc1NC(=O)c1ccc(OC(F)F)cc1`, the cell number change is -11.1%. Besides, the half-maximal activity concentration (AC50) under setting [1] was 9.2 µM [rising, partial curve].

Regarding `Cc1cc(C)cc(NC(=O)C2CCN(S(C)(=O)=O)CC2)c1`, the cell number change is 1.09%. `COc1ccc(C(=O)Nc2ccc(C(=O)Nc3cccc(C)c3)cc2)cc1`: the cell number change was -3.64%. Under setting [1], the AC50 was 0.206 µM [rising, full curve]. Take `Cc1ccn(CC(=O)NC2CC(C)(C)Cc3c2cnn3-c2ccc(F)cc2)n1` (centres undefined): the cell number change turned out to be 24.9%. Moreover, under setting [1], the AC50 was 29.1 µM [rising, single point]. As to `Cc1cccc(NC(=O)CN(c2ccc(F)cc2)S(C)(=O)=O)c1`, the cell number change is -57.5%. Also, under setting [2], the AC50 was 4.61 µM [falling, partial curve]. Under setting [1], the AC50 was 7.31 µM [falling, partial curve]. For the compound `O=C(Cc1ccc(Cl)cc1)NC1CCCCCC1`, under setting [1], the AC50 was 6.51 µM [rising, single point]. Consider `CCC(=O)OCC(=O)N=c1sccn1Cc1ccc(C)cc1`, for which the cell number change is -1.08%. Further, under setting [1], the AC50 is 5.8 µM [rising, full curve]. Regarding `O=C(Cc1ccc2c(c1)CCCC2)Nc1ccccc1Cl`, the cell number change is -17.2%. Further, the AC50 under setting [1] was 1.3 µM [falling, full curve, poor fit]. On to `Cc1cn2c(nc1=O)OC1CC2OC1CO` (centres undefined), for which the cell number change is -11.1%. For the same compound, the half-maximal activity concentration (AC50) under setting [1] is 0.00461 µM [falling, full curve, poor fit]. As for `CCOC(=O)C1CCCN(C(c2ccccn2)c2c(C)[nH]c3ccccc23)C1` (centres undefined), the cell number change is -4.97%. Also, under setting [1], the concentration at half-maximal activity (AC50) is 1.3 µM [falling, full curve].

As for `COc1cc(C(C[N+](=O)[O-])c2c(-c3ccccc3)cc3ccccn23)cc(OC)c1OC` (centres undefined), the cell number change was determined as 84.7%. Under setting [2], the AC50 was 4.11 µM [rising, full curve]. Moreover, under setting [1], the AC50 is 5.8 µM [rising, single point]. On to `COc1ccccc1NC(=O)C(C)NS(=O)(=O)c1ccccc1` (centres undefined), for which the cell number change is -7.26%.

As to `COc1ccc(C(=O)c2ccc(Cl)c([N+](=O)[O-])c2)cc1`, the cell number change was -21.9%. The AC50 under setting [1] was 1.16 µM [falling, full curve]. `O=C(NN1c2ccccc2CCc2ccccc21)c1ccccc1Br`: the cell number change was -29%.
